PubChem BioAssay AID504764, Drosophila RNAi Screening Center – 2011

Assay: 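Genes whose knock-down alters Notch-dependent transcription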 (primary screen)
Cell system: Drosophila Kc167 cells
Reagent: long dsRNA against Drosophila genes
Time to read-out: about 5 days (4 days dsRNA, then 24 h after transfection)
Challenge: transfection of constitutively active membrane-tethered Notch lacking the extracellular domain, read 24 h later
Measurement: 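Firefly luciferase from an E(spl)m3 reporter with active Notch, plus control-promoter and uninduced reporter wells for normalisation; unnormalised counts, duplicate wells a and b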
Reading the numbers: induced reporter light, run 1, well a and induced reporter light, run 1, well b: higher = more light from the Notch target reporter with active Notch; control promoter light, run 1, well a and control promoter light, run 1, well b: higher = more light from the viral control promoter (cell number, transfection, viability); uninduced reporter light, run 1, well a: higher = more light from the Notch target reporter without active Notch
Active means: 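Wells with low control signal or poorly matching duplicates excluded; duplicates averaged; per source plate, z beyond ±2 for induced/control log2 ratio or beyond ±1.8 for induced/uninduced marks a hit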
Meaning of the calls: active = modifier hit (raised or lowered Notch signal); inactive = not a hit
The screen tested about 22,000 reagents; shown is a random part of those that have a named target and a result. Of all reagents, 403 (1.9%) are marked active. 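Unnormalised raw counts per well; ratio z-scores behind the hit calls and whether each hit raises or lowers signal are not deposited.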 A number with no mark means an inactive call. Reagent sequences are not shown. Not given: the amount of reagent.

no.	Target gene	dsRNA	induced reporter light, run 1, well a	induced reporter light, run 1, well b	control promoter light, run 1, well a	control promoter light, run 1, well b	uninduced reporter light, run 1, well a
1	yellow-f2	DRSC16372	2.05e5	1.47e5	1.30e5	1.63e5	11820
2	CG5810	DRSC15880	1.78e5	1.67e5	2.05e5	2.10e5	15950
3	CG31924	DRSC00689	1.23e5	1.03e5	99665	73320	8845
4	schuy (schumacher-levy)	DRSC10284	1.24e5	1.14e5	99720	99920	8925
5	Brca2 (BRCA2, DNA repair associated)	DRSC04219	1.97e5	1.73e5	2.12e5	2.12e5	14925
6	Brca2 (BRCA2, DNA repair associated)	DRSC04220	1.84e5	1.48e5	1.40e5	1.45e5	13130
7	CG3009	DRSC18263	2.27e5	2.39e5	3.18e5	2.91e5	15192
8	CG10863	DRSC08145	1.39e5	1.10e5	84945	29340	10665
9	twe (twine)	DRSC03628	1.60e5	1.61e5	1.67e5	1.57e5	14195
10	CG8851	DRSC00718	59460	60620	79220	55730	5325
11	mthl3 (methuselah-like 3)	DRSC06997	80230	88855	1.61e5	1.46e5	7325
12	CG1946	DRSC06804	1.65e5	2.00e5	2.20e5	1.76e5	15135
13	Hip1 (Huntingtin interacting protein 1)	DRSC09812	82315	1.09e5	76140	38965	9160
14	Rsph9 (Radial spoke head protein 9)	DRSC01594	48855	75085	63150	69525	5535
15	CG12521	DRSC09893	1.19e5	1.33e5	2.33e5	1.41e5	7045
16	CG13760	DRSC18617	99485	1.02e5	1.73e5	1.58e5	8320
17	CG18304	DRSC02664	1.39e5 (active)	1.31e5	2.29e5	2.04e5	13065
18	Reps (RALBP1 associated Eps domain containing)	DRSC02940	1.25e5	1.46e5	69675	81590	18810
19	CG31142	DRSC13647	1.90e5	1.67e5	1.77e5	2.02e5	17580
20	Gr28a (Gustatory receptor 28a)	DRSC02290	71110	59515	62765	71045	4375

Reagents above called active (1):
Target gene	dsRNA	induced reporter light, run 1, well a	induced reporter light, run 1, well b	control promoter light, run 1, well a	control promoter light, run 1, well b	uninduced reporter light, run 1, well a
CG18304	DRSC02664	1.39e5 (active)	1.31e5	2.29e5	2.04e5	13065
